Experimental data from the supplement of paper PMC12823440, “Inhibitors supercharge kinase turnover through native proteolytic circuits” (Nature, 2025).
Structures can show the parent of a compound that is named as a salt. Some of the results follow. The calls rarely recur for the same compound in another form.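 Kinases were expressed as nanoluciferase fusions in K562 cells and luminescence was read every 4 h between 2 and 18 h as percent of control, DMSO set to 100% and a positive control to 0%. A time point counts as decreased when the signal drops significantly (2 sigma). The hit call is the authors' own, does not follow from the count of time points alone, and its rule is not shown.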

By UniProt entry, the sequences of proteins in these tests, tags left out. Where a name states a change or a piece, a line headed by the entry shows the natural chain unless it says otherwise.
UniProt Q16288, whole entry, looked up: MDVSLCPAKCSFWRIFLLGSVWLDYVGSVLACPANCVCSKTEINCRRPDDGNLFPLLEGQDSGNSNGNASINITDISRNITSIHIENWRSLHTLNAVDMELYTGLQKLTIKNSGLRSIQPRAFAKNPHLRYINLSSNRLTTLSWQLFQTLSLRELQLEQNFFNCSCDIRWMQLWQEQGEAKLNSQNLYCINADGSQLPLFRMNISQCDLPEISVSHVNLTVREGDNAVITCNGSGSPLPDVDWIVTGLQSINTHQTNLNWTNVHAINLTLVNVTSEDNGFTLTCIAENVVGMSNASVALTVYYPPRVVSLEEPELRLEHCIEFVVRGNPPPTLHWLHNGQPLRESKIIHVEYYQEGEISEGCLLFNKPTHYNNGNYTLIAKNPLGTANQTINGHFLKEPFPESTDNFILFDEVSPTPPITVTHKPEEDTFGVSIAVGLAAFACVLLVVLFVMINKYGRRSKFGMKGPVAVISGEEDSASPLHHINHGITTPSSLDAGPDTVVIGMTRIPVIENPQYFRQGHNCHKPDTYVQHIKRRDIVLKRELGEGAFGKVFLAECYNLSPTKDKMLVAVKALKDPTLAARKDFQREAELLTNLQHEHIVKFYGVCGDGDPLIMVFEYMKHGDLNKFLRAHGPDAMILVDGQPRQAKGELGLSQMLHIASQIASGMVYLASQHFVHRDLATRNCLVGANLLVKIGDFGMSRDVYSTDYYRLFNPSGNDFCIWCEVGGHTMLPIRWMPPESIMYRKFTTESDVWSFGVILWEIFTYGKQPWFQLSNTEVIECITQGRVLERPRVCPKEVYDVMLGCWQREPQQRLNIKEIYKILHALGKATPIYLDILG
UniProt O96013: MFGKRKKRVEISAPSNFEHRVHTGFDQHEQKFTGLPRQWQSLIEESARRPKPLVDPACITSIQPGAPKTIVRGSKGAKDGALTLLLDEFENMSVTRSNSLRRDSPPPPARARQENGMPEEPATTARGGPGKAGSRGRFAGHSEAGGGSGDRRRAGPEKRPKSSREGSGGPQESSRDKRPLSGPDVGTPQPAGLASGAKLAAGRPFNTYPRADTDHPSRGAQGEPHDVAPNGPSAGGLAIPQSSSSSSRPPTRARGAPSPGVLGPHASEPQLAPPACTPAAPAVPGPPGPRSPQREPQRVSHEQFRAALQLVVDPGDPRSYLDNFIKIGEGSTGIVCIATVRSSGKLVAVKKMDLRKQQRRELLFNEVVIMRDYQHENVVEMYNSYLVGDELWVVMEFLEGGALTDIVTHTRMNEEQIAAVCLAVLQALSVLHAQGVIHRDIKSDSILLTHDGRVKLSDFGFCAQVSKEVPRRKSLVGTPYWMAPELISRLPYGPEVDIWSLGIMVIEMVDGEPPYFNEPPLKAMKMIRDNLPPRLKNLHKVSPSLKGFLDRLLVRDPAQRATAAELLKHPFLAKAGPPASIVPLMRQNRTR
UniProt Q96KB5: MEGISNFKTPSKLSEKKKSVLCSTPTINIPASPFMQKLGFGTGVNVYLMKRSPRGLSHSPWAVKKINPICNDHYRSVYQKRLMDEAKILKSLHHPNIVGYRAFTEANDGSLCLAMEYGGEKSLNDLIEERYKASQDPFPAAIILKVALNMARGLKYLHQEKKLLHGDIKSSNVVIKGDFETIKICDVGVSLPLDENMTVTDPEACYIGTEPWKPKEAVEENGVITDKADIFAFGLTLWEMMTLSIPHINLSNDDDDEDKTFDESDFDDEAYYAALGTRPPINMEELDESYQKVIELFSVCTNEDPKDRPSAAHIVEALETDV
UniProt P09619, whole entry: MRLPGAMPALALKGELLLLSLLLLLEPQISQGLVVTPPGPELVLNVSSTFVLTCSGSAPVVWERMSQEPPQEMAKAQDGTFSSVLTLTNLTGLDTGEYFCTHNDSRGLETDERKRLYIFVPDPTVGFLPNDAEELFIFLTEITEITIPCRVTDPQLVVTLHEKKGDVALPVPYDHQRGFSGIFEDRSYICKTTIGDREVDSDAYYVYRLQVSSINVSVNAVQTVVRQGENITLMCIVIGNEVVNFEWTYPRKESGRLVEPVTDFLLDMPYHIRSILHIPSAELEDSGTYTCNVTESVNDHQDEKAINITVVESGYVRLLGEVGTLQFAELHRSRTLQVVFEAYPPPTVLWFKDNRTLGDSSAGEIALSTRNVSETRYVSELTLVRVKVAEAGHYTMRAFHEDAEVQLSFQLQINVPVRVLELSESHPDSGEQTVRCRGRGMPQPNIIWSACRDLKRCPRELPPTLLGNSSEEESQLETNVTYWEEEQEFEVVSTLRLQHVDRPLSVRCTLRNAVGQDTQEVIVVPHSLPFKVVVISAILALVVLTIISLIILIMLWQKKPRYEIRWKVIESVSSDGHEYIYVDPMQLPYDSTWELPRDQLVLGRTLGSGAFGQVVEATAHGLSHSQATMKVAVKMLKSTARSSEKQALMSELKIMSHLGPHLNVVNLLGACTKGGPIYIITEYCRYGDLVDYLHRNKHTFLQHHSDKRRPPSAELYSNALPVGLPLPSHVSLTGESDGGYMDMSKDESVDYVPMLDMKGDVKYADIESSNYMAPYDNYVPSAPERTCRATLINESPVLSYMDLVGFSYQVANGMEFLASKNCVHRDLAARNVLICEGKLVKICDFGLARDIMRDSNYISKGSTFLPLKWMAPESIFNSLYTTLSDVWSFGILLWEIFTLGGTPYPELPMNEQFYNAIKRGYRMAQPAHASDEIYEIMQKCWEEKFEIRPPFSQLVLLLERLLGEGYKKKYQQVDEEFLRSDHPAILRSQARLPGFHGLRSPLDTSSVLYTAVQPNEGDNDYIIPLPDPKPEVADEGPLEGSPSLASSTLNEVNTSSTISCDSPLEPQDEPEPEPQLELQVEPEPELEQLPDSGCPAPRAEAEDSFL
UniProt Q15118, whole entry, looked up: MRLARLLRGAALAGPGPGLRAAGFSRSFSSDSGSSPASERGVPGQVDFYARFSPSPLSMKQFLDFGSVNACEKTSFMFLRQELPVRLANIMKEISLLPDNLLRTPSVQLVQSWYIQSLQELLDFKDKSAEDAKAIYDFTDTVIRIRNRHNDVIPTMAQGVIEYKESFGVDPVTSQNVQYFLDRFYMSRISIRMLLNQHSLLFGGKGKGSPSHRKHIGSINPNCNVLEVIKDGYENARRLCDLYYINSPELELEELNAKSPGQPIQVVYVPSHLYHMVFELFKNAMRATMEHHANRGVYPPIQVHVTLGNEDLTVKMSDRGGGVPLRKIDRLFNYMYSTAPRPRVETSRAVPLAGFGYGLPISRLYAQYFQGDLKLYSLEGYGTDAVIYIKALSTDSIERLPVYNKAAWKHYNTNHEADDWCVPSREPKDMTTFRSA
UniProt O15530: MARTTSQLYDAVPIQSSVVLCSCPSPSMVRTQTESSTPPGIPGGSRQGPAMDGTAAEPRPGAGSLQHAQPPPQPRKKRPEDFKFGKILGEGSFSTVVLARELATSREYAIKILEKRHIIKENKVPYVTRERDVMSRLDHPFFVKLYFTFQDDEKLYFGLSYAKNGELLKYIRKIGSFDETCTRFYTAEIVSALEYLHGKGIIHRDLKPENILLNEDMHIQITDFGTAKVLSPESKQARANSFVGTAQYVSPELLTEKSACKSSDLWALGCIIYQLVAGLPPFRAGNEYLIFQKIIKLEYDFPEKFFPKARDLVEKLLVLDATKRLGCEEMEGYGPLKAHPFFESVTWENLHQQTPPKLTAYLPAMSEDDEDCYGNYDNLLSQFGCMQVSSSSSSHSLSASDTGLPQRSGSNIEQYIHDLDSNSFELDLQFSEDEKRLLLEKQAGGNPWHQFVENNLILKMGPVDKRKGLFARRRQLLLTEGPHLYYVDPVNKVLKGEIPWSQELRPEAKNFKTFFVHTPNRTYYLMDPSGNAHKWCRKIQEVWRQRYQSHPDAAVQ
UniProt Q9UBF8: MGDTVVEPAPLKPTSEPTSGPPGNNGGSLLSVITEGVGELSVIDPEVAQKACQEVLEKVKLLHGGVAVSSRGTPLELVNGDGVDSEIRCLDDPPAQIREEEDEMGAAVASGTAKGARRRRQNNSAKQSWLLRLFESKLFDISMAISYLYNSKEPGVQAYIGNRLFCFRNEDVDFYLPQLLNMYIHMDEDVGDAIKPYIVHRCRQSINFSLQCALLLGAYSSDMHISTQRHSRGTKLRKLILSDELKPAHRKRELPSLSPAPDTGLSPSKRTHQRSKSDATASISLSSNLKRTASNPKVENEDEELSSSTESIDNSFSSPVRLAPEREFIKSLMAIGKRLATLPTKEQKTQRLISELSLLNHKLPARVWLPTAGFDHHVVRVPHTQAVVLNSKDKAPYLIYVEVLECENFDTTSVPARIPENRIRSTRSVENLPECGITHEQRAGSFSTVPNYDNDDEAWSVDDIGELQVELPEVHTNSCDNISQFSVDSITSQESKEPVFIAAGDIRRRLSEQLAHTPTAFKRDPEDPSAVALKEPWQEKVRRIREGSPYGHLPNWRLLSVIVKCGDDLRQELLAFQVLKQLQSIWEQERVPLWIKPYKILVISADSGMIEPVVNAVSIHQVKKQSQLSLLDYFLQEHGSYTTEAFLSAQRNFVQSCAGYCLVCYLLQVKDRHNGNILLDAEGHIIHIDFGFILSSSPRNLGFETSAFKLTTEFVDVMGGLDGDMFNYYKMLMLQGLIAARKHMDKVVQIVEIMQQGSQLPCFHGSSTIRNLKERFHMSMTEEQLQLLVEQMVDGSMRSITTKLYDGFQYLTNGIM
UniProt P53350, whole entry: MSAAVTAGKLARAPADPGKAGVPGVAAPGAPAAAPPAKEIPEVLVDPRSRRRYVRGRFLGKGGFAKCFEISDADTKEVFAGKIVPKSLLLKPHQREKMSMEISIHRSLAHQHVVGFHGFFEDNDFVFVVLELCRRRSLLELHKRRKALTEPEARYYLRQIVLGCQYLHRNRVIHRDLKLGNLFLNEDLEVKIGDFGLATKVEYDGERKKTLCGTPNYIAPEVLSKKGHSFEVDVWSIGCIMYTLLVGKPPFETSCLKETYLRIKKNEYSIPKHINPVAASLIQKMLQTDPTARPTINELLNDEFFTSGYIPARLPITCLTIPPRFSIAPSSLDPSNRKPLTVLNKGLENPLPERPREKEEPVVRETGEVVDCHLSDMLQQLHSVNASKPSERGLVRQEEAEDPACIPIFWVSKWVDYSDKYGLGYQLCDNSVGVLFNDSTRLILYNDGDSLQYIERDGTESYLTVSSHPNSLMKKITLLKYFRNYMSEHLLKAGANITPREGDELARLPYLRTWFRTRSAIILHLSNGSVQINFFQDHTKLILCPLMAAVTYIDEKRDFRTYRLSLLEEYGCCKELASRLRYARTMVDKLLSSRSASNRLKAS
UniProt Q13131: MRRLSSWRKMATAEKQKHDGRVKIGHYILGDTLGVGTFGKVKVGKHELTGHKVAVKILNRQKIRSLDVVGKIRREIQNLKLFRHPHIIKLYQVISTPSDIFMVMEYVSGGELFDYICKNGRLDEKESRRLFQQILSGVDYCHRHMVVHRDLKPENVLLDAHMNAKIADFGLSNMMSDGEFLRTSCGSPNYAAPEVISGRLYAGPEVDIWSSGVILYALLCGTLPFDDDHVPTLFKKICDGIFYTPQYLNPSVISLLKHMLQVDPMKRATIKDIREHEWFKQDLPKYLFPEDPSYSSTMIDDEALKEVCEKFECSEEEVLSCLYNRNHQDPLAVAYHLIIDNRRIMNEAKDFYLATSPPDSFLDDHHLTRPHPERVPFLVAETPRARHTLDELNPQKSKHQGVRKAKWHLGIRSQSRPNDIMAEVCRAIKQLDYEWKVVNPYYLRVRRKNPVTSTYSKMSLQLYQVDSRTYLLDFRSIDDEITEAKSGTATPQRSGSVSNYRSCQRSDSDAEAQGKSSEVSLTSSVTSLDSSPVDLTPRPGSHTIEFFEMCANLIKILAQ

Assays:
Assay in all cases: number of time points (of 5) at which kinase-Nluc abundance scored as decreased, DMSO-normalised (count); higher = more persistent destabilization
Details in all cases: K562; 2-18 h
NTRK3 = NTRK3 (UniProt Q16288)
PAK4 = PAK4 (UniProt O96013)
PBK = PBK (UniProt Q96KB5)
PDGFRB = PDGFRB (UniProt P09619)
PDK1 = PDK1 (UniProt Q15118)
PDPK1 = PDPK1 (UniProt O15530)
PIK4CA = PIK4CA (UniProt P42356)
PIK4CB = PIK4CB (UniProt Q9UBF8)
PLK1 = PLK1 (UniProt P53350)
PRKAA1 = PRKAA1 (UniProt Q13131)

| Compound | number of time points (NTRK3) | number of time points (PAK4) | number of time points (PBK) | number of time points (PDGFRB) | number of time points (PDK1) | number of time points (PDPK1) | number of time points (PIK4CA) | number of time points (PIK4CB) | number of time points (PLK1) | number of time points (PRKAA1) |
| --- | --- | --- | --- | --- | --- | --- | --- | --- | --- | --- |
| CCn1cc(-c2ccnc3[nH]c(-c4cccc(CN(C)C)c4)cc23)c(-c2ccc(NC(=O)N(C)C)cc2)n1 (2.5 µM) | 0 | 0 | 0 | 0 | 0 | 0 | 0 | 0 | 0 | 0 |
| O=C(/C=C/c1ccc(O)c(O)c1)c1ccc(O)cc1O [Butein] (10 µM) | 0 | 0 | 0 | 0 | 0 | 4 | 0 | 2 | 1 | 1 |
| COc1cc(C(=O)NC2CCN(C)CC2)ccc1Nc1ncc2c(n1)N(C1CCCC1)CC(F)(F)C(=O)N2C (10 µM) | 1 | 0 | 0 | 0 | 0 | 0 | 0 | 0 | – | 0 |
| Cc1c(C(=O)N2CCOc3ccc(-c4ccc(N)nc4)cc3C2)ccc(S(C)(=O)=O)c1F (10 µM) | 0 | 0 | 0 | 0 | 0 | 4 | 0 | 0 | 0 | 0 |
| Cc1ccc2c(Nc3cccc(OC(F)(F)F)c3)nccc2c1Nc1ncccc1-c1ncnc2[nH]cnc12 (10 µM) | 0 | 0 | 0 | – | 0 | 0 | 0 | 0 | 0 | 0 |
| COc1cc2c(Nc3ccc(Br)cc3F)ncnc2cc1OCCn1ccnn1 (10 µM) | 0 | 0 | 0 | – | 0 | 0 | 0 | 0 | 0 | 0 |
| COc1cc(Nc2ncc3c(n2)-c2ccc(Cl)cc2C(c2c(F)cccc2OC)=NC3)ccc1C(=O)O [Alisertib] (2.5 µM) | 0 | 0 | 0 | 0 | 0 | 0 | 0 | 0 | 0 | 0 |
| Cc1cccc([C@@H](CO)NC(=O)[C@@H](C)N2Cc3ccc(-c4nc(NC5CCOCC5)ncc4Cl)cc3C2=O)c1 [ERK1/2 inhibitor 1] (10 µM) | 0 | 0 | 0 | 0 | 0 | 0 | 0 | 0 | 0 | 0 |
| Cn1c(=O)n(-c2ccc(C(C)(C)C#N)cc2)c2c3cc(-c4cnc5ccccc5c4)ccc3ncc21 [Dactolisib (Tosylate)] (10 µM) | 4 | 0 | 0 | – | 0 | 4 | 5 | 3 | 3 | 1 |
| COc1cc(N2CCC(N)CC2)ccc1Nc1ncc(Cl)c(-c2c[nH]c3ccccc23)n1 (2.5 µM) | 0 | 0 | 0 | 0 | 0 | 0 | 0 | 0 | 0 | 0 |
| Cc1cc(N2CCOCC2)cc2[nH]c(-c3c(NC[C@@H](O)c4cccc(Cl)c4)cc[nH]c3=O)nc12 (10 µM) | 0 | 0 | 0 | 2 | 0 | 4 | 0 | 2 | 0 | 1 |
| CN(c1ncccc1CNc1nc(Nc2ccc3c(c2)CC(=O)N3)ncc1C(F)(F)F)S(C)(=O)=O (2.5 µM) | 0 | 0 | 0 | – | 0 | 0 | 0 | 0 | 0 | 0 |
| COc1cc(OC)cc(-c2cc3cnc(N)nc3nc2NC(=O)NC(C)(C)C)c1 (10 µM) | 0 | 0 | 0 | – | 0 | 0 | 0 | 0 | 0 | 0 |
| O=S(=O)(NCCNC/C=C/c1ccc(Br)cc1)c1cccc2cnccc12 [H-89 (dihydrochloride)] (10 µM) | 0 | 0 | 0 | 0 | 0 | 0 | 0 | 0 | 0 | 0 |
| Cc1cccc(Cn2nc(C3CC3)c3c(NC(=O)c4cnc5cc(OCCN6CCN(C)CC6)ccn45)cccc32)n1 (10 µM) | 0 | 0 | 0 | 0 | 0 | 0 | 0 | 0 | 0 | 0 |
| CC(C)(C)c1nc2c3cc[nH]c(=O)c3c3cc(F)ccc3c2[nH]1 [Pyridone 6] (10 µM) | 0 | 0 | 0 | – | 0 | 0 | 0 | 0 | 0 | 0 |
| Cc1cc(C)c(/C=C2\C(=O)Nc3ccccc32)[nH]1 [Semaxinib] (10 µM) | 3 | 0 | 0 | – | 0 | 0 | 0 | 0 | 0 | 0 |
| CC[C@H](CO)Nc1nc(NCc2ccccc2)c2ncn(C(C)C)c2n1 [Seliciclib] (10 µM) | 0 | 0 | 0 | 0 | 0 | 0 | 0 | 0 | 0 | 0 |
| Cc1[nH]c(/C=C2\C(=O)Nc3ccc(S(=O)(=O)Cc4c(Cl)cccc4Cl)cc32)c(C)c1C(=O)N1CCC[C@@H]1CN1CCCC1 (2.5 µM) | – | 0 | 0 | 0 | 0 | 0 | 0 | 0 | 0 | 0 |
| CCN(CC)CCCCNc1ncc2cc(-c3cc(OC)cc(OC)c3)c(NC(=O)NC(C)(C)C)nc2n1 (10 µM) | 0 | 0 | 0 | 0 | 0 | 0 | 0 | 0 | 0 | 0 |

| Compound | number of time points (NTRK3) | number of time points (PAK4) | number of time points (PBK) | number of time points (PDGFRB) | number of time points (PDK1) | number of time points (PDPK1) | number of time points (PIK4CA) | number of time points (PIK4CB) | number of time points (PLK1) | number of time points (PRKAA1) |
| --- | --- | --- | --- | --- | --- | --- | --- | --- | --- | --- |
| Cc1c(Cn2c(C)nc3c(C(=O)O)cc(N4CCOCC4)cc32)cccc1C(F)(F)F (10 µM) | 0 | 0 | 0 | 0 | – | 0 | 0 | 0 | 0 | – |
| Cc1ccc(NC(=O)c2cccc(N(C)C)c2)cc1NC(=O)c1ccc(O)cc1 (10 µM) | 0 | 0 | 0 | 0 | 0 | 0 | 0 | 0 | 0 | 0 |
| Cc1ccc(S(=O)(=O)Nc2nc3ccccc3nc2Nc2ccc3nsnc3c2)cc1 [Pilaralisib analogue] (10 µM) | 0 | 0 | 0 | 0 | 0 | – | 0 | 0 | 0 | – |
| COc1ccc2c(NC(=O)Nc3cccc(C(F)(F)F)n3)ccnc2c1 (10 µM) | 0 | 0 | 0 | – | 0 | 0 | 0 | 0 | 0 | 0 |
| CCN(CCCOc1ccc2c(Nc3cc(CC(=O)Nc4cccc(F)c4)[nH]n3)ncnc2c1)CCOP(=O)(O)O [Barasertib] (10 µM) | 0 | 0 | 0 | – | 0 | 3 | 2 | 0 | 0 | 0 |
| CN1CCN(c2ccc(C(=O)Nc3n[nH]c4ccc(Cc5cc(F)cc(F)c5)cc34)c(NC3CCOCC3)c2)CC1 [Entrectinib] (2.5 µM) | 0 | 0 | 0 | – | 0 | 0 | 0 | 0 | 0 | 0 |
| COc1cc(C(=O)NC2CCN(C)CC2)c(F)cc1Nc1ncc2c(n1)N(C1CCCC1)CC(F)(F)C(=O)N2C [TAK-960 (dihydrochloride)] (2.5 µM) | 0 | 0 | 0 | 0 | 0 | 0 | 0 | 0 | – | 0 |
| CC(C)c1ccc2oc3nc(N)c(C(=O)O)cc3c(=O)c2c1 [Amlexanox] (10 µM) | 0 | 0 | 0 | 0 | 0 | 0 | 0 | 0 | 0 | 0 |
| COc1ccc(NC(=O)N2CCN(c3nc(N)nc4c3cnn4C)[C@@H](C)C2)c(C)c1 (10 µM) | 0 | 0 | 0 | 0 | 0 | 0 | 0 | – | 0 | 0 |
| COc1ccc(COc2ccc(Cc3cnc(N)nc3N)cc2OC)cc1 (10 µM) | – | 0 | 0 | 0 | 0 | 0 | 0 | 0 | 0 | 0 |
| CC(=O)NCC(=O)N1[C@@H]2CC[C@H]1c1ccc(Nc3ncc(C(F)(F)F)c(NC4CCC4)n3)cc12 (2.5 µM) | 3 | 0 | 0 | – | 0 | 4 | 0 | 0 | 0 | 0 |
| Oc1ccc(-c2nc(-c3ccc(F)cc3)c(-c3ccncc3)[nH]2)cc1 (2.5 µM) | 0 | 0 | 0 | 0 | 0 | 0 | 0 | 0 | 0 | 0 |
| CC(C)(C)c1cc(NC(=O)Nc2ccc(-c3cn4c(n3)sc3cc(OCCN5CCOCC5)ccc34)cc2)no1 [Quizartinib] (10 µM) | – | 0 | 0 | 4 | 0 | 0 | 0 | 0 | 0 | 0 |
| Cc1cc(C(=O)Nc2cccc(C(=O)Nc3cccc(C(F)(F)F)c3)c2)on1 (10 µM) | 0 | 0 | 0 | 0 | 0 | 0 | 0 | 0 | 0 | 0 |
| CC(C)(C#N)c1ccc(N2C(=O)OCc3cnc4ccc(-c5cnc6ccccc6c5)cc4c32)cc1 (2.5 µM) | 0 | 0 | 0 | 0 | 0 | 0 | 0 | 0 | 0 | 0 |
| CC(C)(C)S(=O)(=O)c1cc2c(Nc3ccc4scnc4c3)ncnc2cc1OCCO (2.5 µM) | 0 | 0 | 0 | 0 | 0 | 0 | 0 | 0 | 0 | 0 |
| O=c1oc2c(O)c(O)cc3c(=O)oc4c(O)c(O)cc1c4c23 [Ellagic acid] (10 µM) | 0 | 0 | 0 | – | 0 | 0 | 0 | 0 | 0 | 0 |
| COc1ccc(C=C(C#N)c2cccnc2)cc1OC (10 µM) | 0 | 0 | 0 | 0 | 0 | 0 | 0 | 0 | 0 | 0 |
| COc1cc(F)cc([C@@H](CO)NC(=O)[C@@H](C)N2Cc3ccc(-c4nc(NC5CCOCC5)ncc4Cl)cc3C2=O)c1 [ERK1/2 inhibitor 2] (10 µM) | 0 | 0 | 0 | 0 | 0 | 0 | 0 | 0 | 0 | 0 |

A run of entries of the results above, as a working copy:

| Compound | number of time points (NTRK3) | number of time points (PAK4) | number of time points (PBK) | number of time points (PDGFRB) | number of time points (PDK1) | number of time points (PDPK1) | number of time points (PIK4CA) | number of time points (PIK4CB) | number of time points (PLK1) | number of time points (PRKAA1) |
| --- | --- | --- | --- | --- | --- | --- | --- | --- | --- | --- |
| Cc1c(Cn2c(C)nc3c(C(=O)O)cc(N4CCOCC4)cc32)cccc1C(F)(F)F (10 µM) | 0 | 0 | 0 | 0 | – | 0 | 0 | 0 | 0 | – |
| Cc1ccc(NC(=O)c2cccc(N(C)C)c2)cc1NC(=O)c1ccc(O)cc1 (10 µM) | 0 | 0 | 0 | 0 | 0 | 0 | 0 | 0 | 0 | 0 |
